{"source": "patent US20260166021A1", "about": "“POLYMORPHIC FORMS OF A SOLUBLE EPOXIDE HYDROLASE INHIBITOR AND FORMULATIONS THEREOF” (EicOsis, LLC, priority 2022, published 2026)", "test": "Crystallization of Formula (I) in single- and binary-solvent systems (resultant XRD pattern)", "protocol": "Formula (I) crystallization was first analyzed in single-solvent systems lacking antisolvent. […] Fast cooling was performed by placing the vials in a 4° C. refrigerator for 24 hours, while slow cooling was performed by decreasing the temperatures of the vials by 20° C./h with stirring. The resulting solids were isolated by centrifuge filtration through […] centrifuge filters. When solids were not produced, the solution was evaporated under nitrogen as an additional attempt to obtain solid. All obtained solids were analyzed by XRD to determine the solid pattern.\nFormula (I) recrystallization was then tested with binary-solvent systems containing water, n-heptane, or c-hexane as antisolvent. […] Anti solvents were added drop-wise at the same temperature until precipitate was observed or the vial volume was reached (˜7 mL). The vials were quickly cooled to 4° C. or slowly cooled by 20° C./hour as in the single-solvent recrystallizations. The resulting solids were isolated by centrifuge filtration. The samples without precipitation were evaporated to dryness under a gentle stream of nitrogen gas as an additional attempt to obtain solid. All obtained solids were analyzed by XRD to determine the solid form. […]", "data": [{"smiles": "CC[C@H](C)C(=O)N1CCC(NC(=O)Nc2ccc(OC(F)(F)F)c(F)c2)CC1", "note": "[Formula (I) FORM A]", "values": [{"measurement": "XRD pattern of solid after single-solvent crystallization", "setting": "ACN, 70° C., Slow (20° C./h) cooling", "value": "A +"}, {"measurement": "XRD pattern of solid after single-solvent crystallization", "setting": "Acetone, 50° C., Fast (4° C.) cooling", "value": "E +"}, {"measurement": "XRD pattern of solid after single-solvent crystallization", "setting": "Acetone, 50° C., Slow (20° C./h) cooling", "value": "B +"}, {"measurement": "XRD pattern of solid after single-solvent crystallization", "setting": "EtOAc, 70° C., Fast (4° C.) cooling", "value": "G +"}, {"measurement": "XRD pattern of solid after single-solvent crystallization", "setting": "EtOAc, 70° C., Slow (20° C./h) cooling", "value": "B +"}, {"measurement": "XRD pattern of solid after single-solvent crystallization", "setting": "MEK, 70° C., Fast (4° C.) cooling", "value": "G +"}, {"measurement": "XRD pattern of solid after single-solvent crystallization", "setting": "MIBK, 70° C., Slow (20° C./h) cooling", "value": "H*"}, {"measurement": "XRD pattern of solid after single-solvent crystallization", "setting": "n-BuOH, 70° C., Fast (4° C.) cooling", "value": "B*"}]}]}
